The results in this text go back to PMC5749825.

Chains of the proteins cited; added tags and fusions are not shown.
UniProt P51784: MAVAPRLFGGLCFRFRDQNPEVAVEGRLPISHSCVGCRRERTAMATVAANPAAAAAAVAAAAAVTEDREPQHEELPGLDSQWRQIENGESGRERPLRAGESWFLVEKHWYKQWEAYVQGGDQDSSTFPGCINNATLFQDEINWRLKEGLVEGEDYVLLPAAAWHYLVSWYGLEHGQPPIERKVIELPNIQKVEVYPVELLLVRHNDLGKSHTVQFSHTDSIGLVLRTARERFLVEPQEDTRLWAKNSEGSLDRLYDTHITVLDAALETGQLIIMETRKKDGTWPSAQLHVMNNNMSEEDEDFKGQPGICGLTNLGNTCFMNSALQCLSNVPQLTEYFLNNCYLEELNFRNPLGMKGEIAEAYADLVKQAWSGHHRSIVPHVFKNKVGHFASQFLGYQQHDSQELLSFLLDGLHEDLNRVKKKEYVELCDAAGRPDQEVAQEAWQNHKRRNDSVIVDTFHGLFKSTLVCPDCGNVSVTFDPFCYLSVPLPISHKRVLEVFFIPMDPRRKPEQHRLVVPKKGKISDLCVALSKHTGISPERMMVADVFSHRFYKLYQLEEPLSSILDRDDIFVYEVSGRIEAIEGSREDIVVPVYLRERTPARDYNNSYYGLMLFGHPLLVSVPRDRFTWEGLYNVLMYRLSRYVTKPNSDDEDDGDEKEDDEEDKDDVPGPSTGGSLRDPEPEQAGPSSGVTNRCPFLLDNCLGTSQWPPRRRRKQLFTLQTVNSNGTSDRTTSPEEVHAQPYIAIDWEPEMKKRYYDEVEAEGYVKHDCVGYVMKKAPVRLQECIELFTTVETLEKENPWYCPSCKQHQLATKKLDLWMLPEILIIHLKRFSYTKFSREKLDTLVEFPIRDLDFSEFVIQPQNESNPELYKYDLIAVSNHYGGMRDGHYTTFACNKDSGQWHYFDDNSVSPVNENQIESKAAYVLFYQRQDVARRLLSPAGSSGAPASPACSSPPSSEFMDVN
UniProt O75592: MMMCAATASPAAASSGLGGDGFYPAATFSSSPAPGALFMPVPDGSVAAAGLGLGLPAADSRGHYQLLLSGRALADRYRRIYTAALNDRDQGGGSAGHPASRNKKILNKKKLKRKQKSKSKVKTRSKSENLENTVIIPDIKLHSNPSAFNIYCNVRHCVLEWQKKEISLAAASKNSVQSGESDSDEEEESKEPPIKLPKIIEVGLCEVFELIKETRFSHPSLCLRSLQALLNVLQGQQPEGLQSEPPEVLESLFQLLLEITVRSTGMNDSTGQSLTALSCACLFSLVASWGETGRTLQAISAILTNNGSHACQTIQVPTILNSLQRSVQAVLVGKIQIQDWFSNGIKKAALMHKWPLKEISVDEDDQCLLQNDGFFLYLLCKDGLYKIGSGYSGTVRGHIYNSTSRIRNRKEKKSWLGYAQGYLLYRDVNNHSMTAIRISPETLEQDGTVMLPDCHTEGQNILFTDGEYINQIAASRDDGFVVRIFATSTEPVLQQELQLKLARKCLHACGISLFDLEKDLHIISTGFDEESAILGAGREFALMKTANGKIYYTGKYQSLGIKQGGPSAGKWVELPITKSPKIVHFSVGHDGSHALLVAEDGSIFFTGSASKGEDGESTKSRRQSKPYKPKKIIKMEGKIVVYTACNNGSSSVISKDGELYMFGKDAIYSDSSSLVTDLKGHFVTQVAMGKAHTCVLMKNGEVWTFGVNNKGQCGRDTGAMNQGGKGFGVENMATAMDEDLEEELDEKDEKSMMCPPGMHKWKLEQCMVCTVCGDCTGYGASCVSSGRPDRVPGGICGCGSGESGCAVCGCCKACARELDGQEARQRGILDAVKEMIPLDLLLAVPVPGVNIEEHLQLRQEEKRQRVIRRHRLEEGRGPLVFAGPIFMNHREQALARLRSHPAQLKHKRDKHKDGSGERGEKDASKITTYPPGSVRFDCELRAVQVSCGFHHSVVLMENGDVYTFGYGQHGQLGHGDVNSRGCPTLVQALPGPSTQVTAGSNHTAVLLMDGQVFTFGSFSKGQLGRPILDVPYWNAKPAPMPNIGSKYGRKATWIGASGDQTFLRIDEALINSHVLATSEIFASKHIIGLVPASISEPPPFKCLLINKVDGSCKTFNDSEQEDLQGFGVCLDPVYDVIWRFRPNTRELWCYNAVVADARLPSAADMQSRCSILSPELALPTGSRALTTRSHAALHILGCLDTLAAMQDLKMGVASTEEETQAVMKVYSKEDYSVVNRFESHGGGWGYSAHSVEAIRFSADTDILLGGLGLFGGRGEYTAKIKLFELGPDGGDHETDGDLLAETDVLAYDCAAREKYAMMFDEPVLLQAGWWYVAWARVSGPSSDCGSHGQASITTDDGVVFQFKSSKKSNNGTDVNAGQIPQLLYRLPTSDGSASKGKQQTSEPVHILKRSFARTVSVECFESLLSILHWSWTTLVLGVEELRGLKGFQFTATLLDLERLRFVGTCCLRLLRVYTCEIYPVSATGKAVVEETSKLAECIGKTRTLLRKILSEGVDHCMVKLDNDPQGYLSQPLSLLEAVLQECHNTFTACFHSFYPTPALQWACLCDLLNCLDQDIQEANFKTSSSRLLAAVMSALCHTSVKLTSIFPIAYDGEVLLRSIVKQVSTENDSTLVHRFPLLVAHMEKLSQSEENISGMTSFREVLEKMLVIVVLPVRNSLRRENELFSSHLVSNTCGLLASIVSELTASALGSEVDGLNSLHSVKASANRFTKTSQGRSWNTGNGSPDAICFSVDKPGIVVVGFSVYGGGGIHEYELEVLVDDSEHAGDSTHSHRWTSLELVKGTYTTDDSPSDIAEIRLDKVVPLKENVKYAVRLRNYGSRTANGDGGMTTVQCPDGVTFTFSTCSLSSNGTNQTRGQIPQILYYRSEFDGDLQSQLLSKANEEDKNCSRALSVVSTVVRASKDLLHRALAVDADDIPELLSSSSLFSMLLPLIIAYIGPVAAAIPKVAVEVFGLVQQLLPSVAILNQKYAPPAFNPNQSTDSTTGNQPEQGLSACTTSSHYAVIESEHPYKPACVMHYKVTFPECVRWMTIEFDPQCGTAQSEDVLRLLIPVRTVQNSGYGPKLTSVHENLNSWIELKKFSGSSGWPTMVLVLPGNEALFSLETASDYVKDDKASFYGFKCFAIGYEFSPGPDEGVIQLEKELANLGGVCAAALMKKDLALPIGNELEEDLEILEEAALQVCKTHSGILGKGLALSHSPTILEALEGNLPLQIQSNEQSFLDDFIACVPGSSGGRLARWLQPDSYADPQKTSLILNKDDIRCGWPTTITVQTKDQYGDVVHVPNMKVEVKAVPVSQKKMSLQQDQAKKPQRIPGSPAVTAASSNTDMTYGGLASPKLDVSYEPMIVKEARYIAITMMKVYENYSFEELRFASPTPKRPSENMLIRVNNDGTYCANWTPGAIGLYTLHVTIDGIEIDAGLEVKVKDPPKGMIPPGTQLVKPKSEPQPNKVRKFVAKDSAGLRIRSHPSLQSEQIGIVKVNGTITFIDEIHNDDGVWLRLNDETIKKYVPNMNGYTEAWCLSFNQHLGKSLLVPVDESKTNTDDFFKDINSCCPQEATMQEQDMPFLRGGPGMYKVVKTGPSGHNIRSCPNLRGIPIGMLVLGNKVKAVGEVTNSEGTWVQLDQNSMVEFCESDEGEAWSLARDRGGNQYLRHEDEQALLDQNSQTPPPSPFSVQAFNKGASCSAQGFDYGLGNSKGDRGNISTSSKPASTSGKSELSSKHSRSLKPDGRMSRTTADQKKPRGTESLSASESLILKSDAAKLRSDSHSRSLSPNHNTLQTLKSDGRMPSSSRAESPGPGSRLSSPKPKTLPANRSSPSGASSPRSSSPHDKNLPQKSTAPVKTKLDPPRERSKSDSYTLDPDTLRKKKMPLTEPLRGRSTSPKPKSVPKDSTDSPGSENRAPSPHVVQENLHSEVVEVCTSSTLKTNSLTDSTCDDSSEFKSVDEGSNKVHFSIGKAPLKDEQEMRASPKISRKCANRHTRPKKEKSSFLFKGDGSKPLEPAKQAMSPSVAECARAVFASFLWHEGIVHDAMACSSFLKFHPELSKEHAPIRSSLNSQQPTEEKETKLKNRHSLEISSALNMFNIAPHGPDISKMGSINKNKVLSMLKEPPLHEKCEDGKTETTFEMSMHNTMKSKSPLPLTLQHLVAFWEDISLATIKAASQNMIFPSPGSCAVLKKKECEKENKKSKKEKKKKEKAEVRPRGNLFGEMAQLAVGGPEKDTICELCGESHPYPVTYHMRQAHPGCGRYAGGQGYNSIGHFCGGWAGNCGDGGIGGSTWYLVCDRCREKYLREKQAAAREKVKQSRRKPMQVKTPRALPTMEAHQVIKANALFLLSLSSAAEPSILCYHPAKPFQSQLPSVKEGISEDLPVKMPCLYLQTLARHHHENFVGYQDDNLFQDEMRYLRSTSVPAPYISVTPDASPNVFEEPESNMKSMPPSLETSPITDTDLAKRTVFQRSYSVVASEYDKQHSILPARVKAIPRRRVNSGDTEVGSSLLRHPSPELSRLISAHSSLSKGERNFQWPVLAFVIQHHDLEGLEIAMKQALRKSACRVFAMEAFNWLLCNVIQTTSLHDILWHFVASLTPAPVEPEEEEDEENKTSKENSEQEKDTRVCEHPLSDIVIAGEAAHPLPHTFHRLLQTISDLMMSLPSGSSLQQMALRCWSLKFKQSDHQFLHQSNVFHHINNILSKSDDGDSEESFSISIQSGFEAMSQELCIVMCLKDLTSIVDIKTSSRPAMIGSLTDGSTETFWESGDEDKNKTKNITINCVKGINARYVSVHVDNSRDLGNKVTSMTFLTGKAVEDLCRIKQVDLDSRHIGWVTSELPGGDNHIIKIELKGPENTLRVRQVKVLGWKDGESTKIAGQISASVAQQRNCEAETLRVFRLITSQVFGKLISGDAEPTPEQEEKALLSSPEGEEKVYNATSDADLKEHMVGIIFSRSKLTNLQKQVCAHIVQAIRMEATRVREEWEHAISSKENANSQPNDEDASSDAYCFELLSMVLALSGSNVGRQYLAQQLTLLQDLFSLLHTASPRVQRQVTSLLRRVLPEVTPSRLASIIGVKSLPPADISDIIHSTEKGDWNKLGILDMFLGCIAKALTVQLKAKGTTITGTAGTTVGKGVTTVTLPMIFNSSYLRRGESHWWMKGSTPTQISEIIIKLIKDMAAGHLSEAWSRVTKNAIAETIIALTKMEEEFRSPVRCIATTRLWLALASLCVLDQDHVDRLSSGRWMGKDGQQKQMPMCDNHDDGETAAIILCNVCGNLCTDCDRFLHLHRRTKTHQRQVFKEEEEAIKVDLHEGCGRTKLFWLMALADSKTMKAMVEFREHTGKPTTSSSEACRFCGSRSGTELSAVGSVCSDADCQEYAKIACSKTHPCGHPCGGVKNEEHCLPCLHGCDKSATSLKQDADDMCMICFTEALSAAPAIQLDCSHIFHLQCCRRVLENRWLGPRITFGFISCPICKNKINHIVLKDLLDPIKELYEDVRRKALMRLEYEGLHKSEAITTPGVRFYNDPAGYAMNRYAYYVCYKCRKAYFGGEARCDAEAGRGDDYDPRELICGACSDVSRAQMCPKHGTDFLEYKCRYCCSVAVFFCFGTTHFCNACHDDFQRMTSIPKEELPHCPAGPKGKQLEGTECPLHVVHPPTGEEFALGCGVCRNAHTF

Results are given in words; binding and its absence hold for the method and conditions named. Binding seen in cells or lysates may run through a third protein. A yes stands for co-enrichment or nearness to the bait. Other partners may have been found.

The labels stand for the following.
B1: endogenous KCTD6 of U2OS cells (protein, UniProt Q8NC69 1-237)
chain: MDNGDWGYMMTDPVTLNVGGHLYTTSLTTLTRYPDSMLGAMFGGDFPTARDPQGNYFIDRDGPLFRYVLNFLRTSELTLPLDFKEFDLLRKEADFYQIEPLIQCLNDPKPLYPMDTFEEVVELSSTRKLSKYSNPVAVIITQLTITTKVHSLLEGISNYFTKWNKHMMDTRDCQVSFTFGPCDYHQEVSLRVHLMEYITKQGFTIRNTRVHHMSERANENTVEHNWTFCRLARKTDD
B2: endogenous RAE1 of U2OS cells (protein, UniProt P78406 1-368)
chain: MSLFGTTSGFGTSGTSMFGSATTDNHNPMKDIEVTSSPDDSIGCLSFSPPTLPGNFLIAGSWANDVRCWEVQDSGQTIPKAQQMHTGPVLDVCWSDDGSKVFTASCDKTAKMWDLSSNQAIQIAQHDAPVKTIHWIKAPNYSCVMTGSWDKTLKFWDTRSSNPMMVLQLPERCYCADVIYPMAVVATAERGLIVYQLENQPSEFRRIESPLKHQHRCVAIFKDKQNKPTGFALGSIEGRVAIHYINPPNPAKDNFTFKCHRSNGTNTSAPQDIYAVNGIAFHPVHGTLATVGSDGRFSFWDKDARTKLKTSEQLDQPISACCFNHNGNIFAYASSYDWSKGHEFYNPQKKNYIFLRNAAEELKPRNKK
B3: endogenous SPRYD3 (SPRY-domain containing protein 3) of U2OS cells (protein, UniProt Q8NCJ5 1-442)
chain: MRRTRRPRFVLMNKMDDLNLHYRFLNWRRRIREIREVRAFRYQERFKHILVDGDTLSYHGNSGEVGCYVASRPLTKDSNYFEVSIVDSGVRGTIAVGLVPQYYSLDHQPGWLPDSVAYHADDGKLYNGRAKGRQFGSKCNSGDRIGCGIEPVSFDVQTAQIFFTKNGKRVGSTIMPMSPDGLFPAVGMHSLGEEVRLHLNAELGREDDSVMMVDSYEDEWGRLHDVRVCGTLLEYLGKGKSIVDVGLAQARHPLSTRSHYFEVEIVDPGEKCYIALGLARKDYPKNRHPGWSRGSVAYHADDGKIFHGSGVGDPFGPRCYKGDIMGCGIMFPRDYILDSEGDSDDSCDTVILSPTARAVRNVRNVMYLHQEGEEEEEEEEEEEDGEEIEPEHEGRKVVVFFTRNGKIIGKKDAVVPSGGFFPTIGMLSCGEKVKVDLHPLSG

For the assay, the target named is Flag-tagged USP11 (Ubiquitin Specific Protease 11), stably expressed in U2OS cells (UniProt P51784). In words: affinity purification with mass spectrometry; large-scale Flag-IP from U2OS cells stably expressing Flag-USP11 (parental line as negative control); lysis in CSK buffer (10 mM Hepes pH 7.4, 10 mM KCl, 100 mM NaCl) with 0.5% NP40; anti-Flag agarose, 4°C, 4h; elution with Flag peptide; excised gel bands analysed by MS/MS.
With “endogenous USP7 (Ubiquitin Specific Protease 7) of U2OS cells (from UniProt Q93009 1-1102) (enzyme)”, the binding result is “binds”. The result for “endogenous PAM (Protein associated with Myc) of U2OS cells (from UniProt O75592 1-4678)” reads “binds”. The same measure for B1: “binds”; for B2: “binds”. The same measure for B3: “binds”.
